From PubChem BioAssay AID2685 (National Center for Advancing Translational Sciences (NCATS), 2010) come the findings set out here.

A short description of this test: qHTS Assay for Lipid Storage Modulators in Drosophila S3 Cells.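 As to cell number change: cells counted by Cell Tracker Red CMTPX staining in the red channel.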 The settings on record: BODIPY lipid droplet fluorescence, 18-24 h; for cell number change: measured here: cell count max response, cells fed with added oleic acid. A digest of the protocol: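 Drosophila S3 cells got compounds at several concentrations plus oleic acid (400 uM solution). Laser-scanning cytometry with 488 nm excitation read lipid droplets at 500-530 nm and cells at 575-640 nm. Percent activity was relative to 20 uM Triacsin C.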

Where [1] appears, read: measured here: lipid fluorescence (Fed channel) AC50, cells fed with added oleic acid.
Setting [2] is: measured here: cell number channel AC50, cells fed with added oleic acid.

The other results are listed elsewhere or left out. These are further read-outs of the screen, such as a control signal, another cell line or another target. No call is given for them. The list favours compounds with an active or inconclusive main result. Words in brackets tell the shape of the fitted curve; partial curves, single points and poor fits give uncertain potencies.

One may read the AC50 as the concentration giving half of the maximal activity seen. Read a low AC50 as activity at low concentration.

Consider `COc1ccc(OC)c(NC(=O)N2CCCC(C(=O)c3ccccc3OC)C2)c1` (centres undefined), for which the cell number change is -29.4%. Also, under setting [1], the AC50 was 29.1 µM [falling, partial curve, poor fit].
Consider `Cc1ccc(C(=O)OCC(=O)Nc2cc(F)ccc2F)cc1NC(=O)c1ccco1`, for which the AC50 runs as follows: under setting [2], 0.291 µM [rising, partial curve, poor fit]; under setting [1], 0.146 µM [rising, full curve, poor fit].
With `CC(C)(C)c1ccc(-n2ncc3c2CCCC3NC(=O)CCn2cncn2)cc1` (centres undefined), the AC50 under setting [1] was 29.1 µM [falling, single point].
For the molecule `N#Cc1ccc(-c2ccc(F)cc2)nc1Sc1ccc(F)cc1`, the cell number change came out at 123%. The AC50 under setting [1] was 0.82 µM [falling, full curve].
On to `Cc1cc(C)cc(C(=O)NCCC(=O)NCc2cc(=O)n(C)c(=O)n2C)c1`, for which the cell number change was -17.6%. For the same molecule, the AC50 under setting [1] is 2.06 µM [rising, single point].
As to `CC[N+](CC)(CC)C/C(N)=N/O`, the cell number change worked out at 5.77%. The AC50 under setting [1] is 0.0651 µM [rising, single point].
Consider `COc1ccccc1C(=O)COC(=O)c1cccc(-n2cnnn2)c1`, for which the cell number change is 26%. Further, under setting [1], the AC50 was 4.61 µM [rising, single point].
Regarding `CC(=O)/C(C#N)=C1\NC(=O)C(Cc2ccccc2C)S1` (centres undefined), the cell number change is -47.9%. In addition, the AC50 under setting [2] was 1.84 µM [falling, partial curve, poor fit]. The AC50 under setting [1] was 9.2 µM [falling, partial curve].
With `Cc1c(NS(=O)(=O)c2cccc(C(=O)NCc3ccccc3)c2)c(=O)n(-c2ccccc2)n1C`, the cell number change worked out at 66.9%. Also, the AC50 under setting [2] was 6.51 µM [rising, full curve, poor fit].
Regarding `O=c1cc(O)c2ccccc2n1Cc1ccccc1F`, the cell number change worked out at 5.14%.
As to `CC(CCc1ccccc1)NC(=O)COC(=O)C(CCC(N)=O)NC(=O)c1ccc(F)cc1` (centres undefined), the cell number change was found to be 10.7%. In addition, under setting [2], the AC50 is 2.59 µM [falling, partial curve]. Further, the half-maximal activity concentration (AC50) under setting [1] was 2.59 µM [falling, partial curve].
On to `Cc1c(Cl)cnc(NC(=O)COC(=O)c2cccc(S(=O)(=O)N3c4ccccc4CC3C)c2)c1Cl` (centres undefined), for which the cell number change is -0.0784%. In addition, the AC50 under setting [1] is 32.6 µM [rising, single point].
With `Cc1ccc(C(C(=O)NCC2CCCO2)N(C(=O)c2snc(C(N)=O)c2N)c2ccc(C)c(C)c2)o1` (centres undefined), the cell number change is 6.67%.
In the case of `COc1ccc(NC(=O)/C(Cl)=C(/Cl)S(=O)Cc2ccccc2)cn1` (centres undefined), the cell number change was -44%. Besides, the AC50 under setting [2] was 5.8 µM [falling, partial curve]. For the same molecule, the AC50 under setting [1] was 10.3 µM [falling, partial curve].
`Nc1nc(COC(=O)C2CC(=O)N(Cc3ccccc3)C2)nc(Nc2ccccc2)n1` (centres undefined): the cell number change worked out at 11.7%. The AC50 under setting [1] is 29.1 µM [rising, single point].
As to `CCn1c(SCC(=O)c2ccc3c(c2)OCCO3)nnc1-c1ccco1`, the cell number change came to 22.3%. For the same molecule, the AC50 under setting [1] is 0.731 µM [falling, full curve, poor fit].
As to `COc1ccc2[nH]cc(C(=O)CN3CCC(C)CC3)c2c1`, the cell number change came out at 8.99%. The AC50 under setting [1] is 29.1 µM [rising, single point].
As for `COc1ccc(OCC(O)CNC2CCCC2)cc1` (centres undefined), the cell number change came out at 17.1%. Further, under setting [1], the AC50 was 4.11 µM [rising, full curve].
On to `CNc1nc2c(C)cccn2c(=O)c1C=NCc1ccccc1`, for which the cell number change came to 136%. Besides, under setting [2], the AC50 was 3.66 µM [rising, full curve].
With `O=C(C1=C(O)C(=O)N(c2nc3ccc(Cl)cc3s2)C1c1ccco1)c1ccco1` (centres undefined), the cell number change is 13.8%. The AC50 under setting [2] was 0.291 µM [rising, full curve, poor fit]. Also, under setting [1], the AC50 is 0.206 µM [rising, full curve, poor fit].
As to `O=C(CCN1CCN(c2ccccc2)CC1)Nc1ccc(Cl)cc1`, the cell number change is -35.2%. Moreover, the AC50 under setting [2] is 4.11 µM [falling, full curve, poor fit]. Besides, the AC50 under setting [1] is 5.17 µM [falling, full curve].
Turning to `CN1CCCC(OC(=O)c2cccc(Cl)c2)C1` (centres undefined), the cell number change was -55%. Also, the AC50 under setting [2] was 29.1 µM [falling, single point].
As for `CN1C(=O)C(C)(C)c2cc(S(=O)(=O)NCc3ccc(C(=O)NCc4ccco4)cc3)ccc21`, the cell number change was found to be 20.7%. Under setting [1], the AC50 is 13 µM [rising, partial curve].
Turning to `Cc1cc(=O)oc(C)c1C(=O)NCCNC(=O)c1c(C)cc(=O)oc1C`, the cell number change is -20.8%. Under setting [2], the AC50 is 6.51 µM [falling, single point]. In addition, the AC50 under setting [1] is 14.6 µM [falling, partial curve].
For the molecule `O=C(Nc1ccc(F)cc1)c1ccc2nc[nH]c2c1`, the cell number change was determined as 44.2%. The AC50 under setting [2] is 0.00517 µM [rising, full curve, poor fit]. Besides, the AC50 under setting [1] is 0.103 µM [rising, full curve, poor fit].
As for `COCCCn1cc(C(=O)c2ccccc2OCC(=O)Nc2cccc(F)c2)cc(C#N)c1=O`, the cell number change worked out at 22.6%.
On to `Cn1cc(/C=C(\NC(=O)c2ccccc2Cl)C(=O)NCCCN2CCOCC2)c2ccccc21`, for which the cell number change was determined as 6.13%. The AC50 under setting [1] was 18.4 µM [rising, single point].
As to `O=C1[C@@H]2Cc3c([nH]c4ccccc34)C(c3cccc([N+](=O)[O-])c3)N2C(=O)CN1C1CCN(Cc2ccccc2)CC1` (some centres undefined), the cell number change is -45.6%. Under setting [2], the AC50 was 13 µM [falling, partial curve]. The AC50 under setting [1] was 11.6 µM [falling, partial curve].
Consider `CC1CCCC(NC(=O)CNCc2ccccc2F)C1C` (centres undefined), for which the cell number change was 12.5%. Under setting [2], the AC50 was 4.61 µM [falling, single point]. Moreover, the AC50 under setting [1] is 23.1 µM [falling, partial curve].
Take `Cc1ccc(C(C)NC(=O)CSc2ccc(S(=O)(=O)N3CCOCC3)cn2)cc1C` (centres undefined): the cell number change turned out to be 5.33%. The AC50 under setting [1] is 0.651 µM [falling, single point].
As for `C#CCOCCOCCOCCNc1nc(N2CCN(C(=O)CCCCCCCCCCNC(=O)Cn3cc(CCCCCN)nn3)CC2)nc(N2CCN(C(=O)CCCCCCCCCCNC(=O)[C@@H]([C@H](C)O)n3cc(C)nn3)CC2)n1`, the cell number change is -54.6%. Moreover, the AC50 under setting [2] was 29.1 µM [falling, single point].
As for `Cc1nn(-c2ccccc2)c(Cl)c1/C=N/NC(=O)C1COc2ccccc2O1` (centres undefined), the cell number change amounted to 3.69%.
With `c1ccc(CCn2c3ccccc3c3nnc(SCc4ccc5nonc5c4)nc32)cc1`, the AC50 under setting [2] was 3.26 µM [rising, partial curve] and the AC50 under setting [1] was 1.3 µM [rising, full curve].
Take `CCN(Cc1ccccc1)C(=O)COc1ccccc1`: the cell number change worked out at 20.2%. Also, the AC50 under setting [1] is 29.1 µM [rising, single point].
With `CCOc1ccc(NC2=CC(=O)CC(c3ccco3)C2)cc1` (centres undefined), the cell number change was -2.88%.
Turning to `COc1ccc(S(=O)(=O)N2CCC3(CC2)OCCO3)cc1`, the cell number change is -26.2%.
Turning to `COc1ccccc1NC(=S)NC(=O)C(C)C`, under setting [1], the AC50 was 0.731 µM [falling, single point].
For `CCNc1ccc(S(=O)(=O)NCCN(C)C)cc1[N+](=O)[O-]`, the cell number change is -37.3%. The AC50 under setting [2] is 0.0058 µM [falling, full curve, poor fit]. In addition, the AC50 under setting [1] was 9.2 µM [falling, partial curve].
On to `CC(C)C12CN3CC(C(C)C)(CN(C1)C3c1ccc3c(c1)OCO3)C2=O` (centres undefined), for which the AC50 under setting [1] is 4.61 µM [rising, single point].
As for `Cc1ccsc1CN(C)Cc1nc(C2CC2)no1`, the cell number change is -27.2%. Also, the AC50 under setting [1] was 29.1 µM [falling, single point].
For `O=C(Nc1ccccc1-c1ccccc1)c1ccc(Br)o1`, the cell number change is -0.621%. Also, the AC50 under setting [2] is 1.64 µM [rising, partial curve]. Moreover, the AC50 under setting [1] was 1.3 µM [rising, partial curve].
Consider `COC(=O)Cn1nnc(N2CCOCC2)n1`, for which the cell number change turned out to be 27.3%. Further, the concentration at half-maximal activity (AC50) under setting [1] was 32.6 µM [rising, partial curve, poor fit].
Consider `Cc1c(C(=O)Nc2ccc(Cl)cc2)c2ccccn2c1C(=O)c1ccccc1`, for which the cell number change was -21.8%. Under setting [1], the AC50 is 18.4 µM [falling, partial curve].
On to `O=C(N/N=C/c1cccnc1)C1CCCN(S(=O)(=O)c2ccccc2)C1` (centres undefined), for which, under setting [2], the AC50 was 6.51 µM [rising, single point].
With `COc1ccc(Cl)cc1C(=O)Nc1ccncc1`, the cell number change was -17.7%.
In the case of `COc1cc(/C=C/C(=O)OCC(=O)N2c3ccccc3NC(=O)C2(C)C)cc(OC)c1OC`, the cell number change is -17.7%.
Regarding `CCOc1ccc(C(=O)/C=C/Nc2ccc(S(=O)(=O)Nc3onc(C)c3C)cc2)cc1`, the cell number change is 12.5%. Besides, the AC50 under setting [1] was 5.8 µM [rising, single point].
In the case of `CC(C)N1CCC(N2CCN(Cc3cnc(-c4ccccc4)s3)CC2CCO)CC1` (centres undefined), the cell number change is -5.39%. Further, under setting [1], the AC50 is 4.11 µM [falling, partial curve, poor fit].
As for `COc1ccc(Nc2nc(-c3cccnc3)nc3ccccc23)cn1`, the cell number change is -39.7%. The AC50 under setting [2] was 2.31 µM [falling, full curve, poor fit].
With `COC(=O)CNC(=O)C1CC(=O)N(CCc2ccc(F)cc2)C1` (centres undefined), the cell number change worked out at 11.8%. In addition, the AC50 under setting [1] was 6.51 µM [rising, single point].
Consider `Cc1ccc(CNC(=O)CN(CCc2ccccc2)S(C)(=O)=O)cc1`, for which the cell number change is -10.6%. In addition, under setting [2], the AC50 was 0.092 µM [falling, full curve, poor fit]. Further, the AC50 under setting [1] is 0.116 µM [falling, full curve, poor fit].
Consider `COc1cc(/C=N/Nc2nc3ccccc3[nH]2)ccc1O`, for which the cell number change is -19.9%. Also, the AC50 under setting [1] is 16.4 µM [falling, single point].
`CCCCC(=O)N/N=C/c1sccc1C`: the cell number change was -10.6%. Also, the AC50 under setting [1] is 0.164 µM [rising, full curve].
`COc1ccc(C(=S)N2CCOCC2)cc1OC(=O)c1ccccc1`: the cell number change worked out at 41.4%. Also, the AC50 under setting [2] is 18.4 µM [rising, partial curve, poor fit]. In addition, the AC50 under setting [1] was 29.1 µM [rising, single point].
On to `Clc1ccc(-n2nnc(-c3cccnc3Cl)n2)cn1`, for which the cell number change was -15.5%. For the same molecule, the AC50 under setting [1] was 9.2 µM [falling, partial curve].
As to `COc1ccc2cnnc(SCC(=O)Nc3ccc(C(C)=O)cc3)c2c1OC`, the cell number change is -32.6%. Under setting [2], the AC50 is 0.00517 µM [falling, full curve, poor fit].
As for `COCCn1c(=NC(=O)c2ccco2)sc2cc(C(=O)OC)ccc21`, the cell number change is -12.6%.
